Test results as given in paper PMC11932694.
These are yes or no findings as the source states them, for the method shown. In cells and extracts the contact can be indirect. Some results given as binding are weak or reduced against the parent protein; the word gives no strength. Tags and fused reporters may be left off the sequences shown.

Chains of the proteins cited; added tags and fusions are not shown.
UniProt Q7Z434: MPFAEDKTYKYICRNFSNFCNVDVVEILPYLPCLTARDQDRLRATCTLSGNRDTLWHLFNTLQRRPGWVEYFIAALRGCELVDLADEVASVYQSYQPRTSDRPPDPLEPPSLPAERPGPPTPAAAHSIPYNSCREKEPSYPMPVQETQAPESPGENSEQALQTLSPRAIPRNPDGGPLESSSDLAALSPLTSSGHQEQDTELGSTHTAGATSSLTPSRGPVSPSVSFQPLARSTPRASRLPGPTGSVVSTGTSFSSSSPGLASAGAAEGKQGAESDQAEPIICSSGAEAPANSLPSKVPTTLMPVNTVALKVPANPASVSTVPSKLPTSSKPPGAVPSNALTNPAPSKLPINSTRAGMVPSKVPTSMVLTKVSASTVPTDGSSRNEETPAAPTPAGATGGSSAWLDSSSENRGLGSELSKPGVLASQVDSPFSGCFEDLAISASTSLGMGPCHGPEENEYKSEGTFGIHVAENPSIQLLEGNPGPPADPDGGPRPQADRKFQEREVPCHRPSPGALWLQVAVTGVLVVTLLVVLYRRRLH
UniProt O94874: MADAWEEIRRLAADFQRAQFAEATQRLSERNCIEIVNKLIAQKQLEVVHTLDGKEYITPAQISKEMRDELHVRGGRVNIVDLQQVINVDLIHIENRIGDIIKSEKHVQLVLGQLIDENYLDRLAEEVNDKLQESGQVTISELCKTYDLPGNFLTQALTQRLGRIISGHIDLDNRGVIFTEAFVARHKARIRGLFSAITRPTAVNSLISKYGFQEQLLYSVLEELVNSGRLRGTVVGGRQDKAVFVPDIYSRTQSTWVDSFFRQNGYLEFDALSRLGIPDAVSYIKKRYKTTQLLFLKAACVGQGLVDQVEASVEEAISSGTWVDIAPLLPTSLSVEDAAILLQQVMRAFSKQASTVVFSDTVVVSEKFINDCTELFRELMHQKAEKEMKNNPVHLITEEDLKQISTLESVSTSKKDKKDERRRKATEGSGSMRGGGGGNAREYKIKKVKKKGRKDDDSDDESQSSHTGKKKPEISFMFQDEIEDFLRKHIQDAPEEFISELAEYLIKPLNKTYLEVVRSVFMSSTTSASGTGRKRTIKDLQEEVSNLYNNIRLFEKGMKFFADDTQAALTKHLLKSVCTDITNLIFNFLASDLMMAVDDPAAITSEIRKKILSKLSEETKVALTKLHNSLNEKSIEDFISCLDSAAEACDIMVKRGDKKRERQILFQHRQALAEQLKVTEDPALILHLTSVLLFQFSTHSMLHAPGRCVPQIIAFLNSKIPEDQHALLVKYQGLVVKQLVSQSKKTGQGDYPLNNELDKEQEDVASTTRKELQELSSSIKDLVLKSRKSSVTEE
UniProt Q14694: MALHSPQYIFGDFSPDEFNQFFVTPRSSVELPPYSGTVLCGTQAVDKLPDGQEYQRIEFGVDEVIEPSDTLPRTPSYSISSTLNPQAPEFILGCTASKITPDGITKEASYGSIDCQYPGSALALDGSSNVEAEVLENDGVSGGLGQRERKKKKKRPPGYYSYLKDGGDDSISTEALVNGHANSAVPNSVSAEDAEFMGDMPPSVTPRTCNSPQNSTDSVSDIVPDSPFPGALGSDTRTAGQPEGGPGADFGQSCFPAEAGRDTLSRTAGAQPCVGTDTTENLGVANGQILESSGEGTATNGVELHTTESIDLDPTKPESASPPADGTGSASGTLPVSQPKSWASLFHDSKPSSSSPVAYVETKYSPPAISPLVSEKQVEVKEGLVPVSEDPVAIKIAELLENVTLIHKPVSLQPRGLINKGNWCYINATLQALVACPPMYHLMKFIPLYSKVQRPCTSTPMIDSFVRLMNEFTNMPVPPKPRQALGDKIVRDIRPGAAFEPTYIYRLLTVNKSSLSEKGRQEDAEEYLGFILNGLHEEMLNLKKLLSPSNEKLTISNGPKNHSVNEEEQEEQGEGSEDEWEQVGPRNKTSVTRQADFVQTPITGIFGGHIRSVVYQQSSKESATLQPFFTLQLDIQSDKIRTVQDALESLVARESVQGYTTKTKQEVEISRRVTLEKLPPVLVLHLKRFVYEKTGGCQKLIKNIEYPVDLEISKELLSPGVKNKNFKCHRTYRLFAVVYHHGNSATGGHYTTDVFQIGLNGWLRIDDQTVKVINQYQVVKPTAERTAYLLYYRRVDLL

Key:
Assay in all cases: co-IP; HEK293T cells co-transfected with a Flag-tagged protein and GFP-tagged ORMDL3 (whole or truncated); lysates immunoprecipitated with anti-Flag antibody and protein A/G beads, blots with anti-GFP and anti-Flag; in Figure 5B with or without poly(I:C) co-transfection
Flag-IKBKE = biological target: T1, Flag-IKBKE (UniProt Q14164)
T1 sequence: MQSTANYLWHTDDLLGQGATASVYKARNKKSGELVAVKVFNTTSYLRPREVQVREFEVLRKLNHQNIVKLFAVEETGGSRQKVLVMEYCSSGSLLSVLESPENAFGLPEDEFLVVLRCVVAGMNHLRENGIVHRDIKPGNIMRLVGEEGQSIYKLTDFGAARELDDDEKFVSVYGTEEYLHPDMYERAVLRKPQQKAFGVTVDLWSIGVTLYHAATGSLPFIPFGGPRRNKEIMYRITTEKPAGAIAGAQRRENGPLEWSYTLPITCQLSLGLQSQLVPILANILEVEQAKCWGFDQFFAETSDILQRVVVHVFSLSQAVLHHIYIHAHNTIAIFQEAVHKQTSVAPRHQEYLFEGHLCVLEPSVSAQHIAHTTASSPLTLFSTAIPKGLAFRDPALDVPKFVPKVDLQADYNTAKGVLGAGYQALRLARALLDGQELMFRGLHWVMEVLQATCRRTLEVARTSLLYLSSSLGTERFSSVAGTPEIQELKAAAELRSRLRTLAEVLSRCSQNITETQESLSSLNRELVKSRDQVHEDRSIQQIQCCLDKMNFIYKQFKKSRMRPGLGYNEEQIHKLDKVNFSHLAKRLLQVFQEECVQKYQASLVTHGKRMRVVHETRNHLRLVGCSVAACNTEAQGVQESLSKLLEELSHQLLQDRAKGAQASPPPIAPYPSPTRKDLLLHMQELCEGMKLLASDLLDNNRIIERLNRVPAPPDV

Flag-MAVS = Flag-MAVS (UniProt Q7Z434)
UFL1 = UFL1 (UniProt O94874)
Flag-USP10 = Flag-USP10 (UniProt Q14694)
Flag-TBK1 = biological target: T2, Flag-TBK1 (UniProt Q9UHD2)
T2 sequence: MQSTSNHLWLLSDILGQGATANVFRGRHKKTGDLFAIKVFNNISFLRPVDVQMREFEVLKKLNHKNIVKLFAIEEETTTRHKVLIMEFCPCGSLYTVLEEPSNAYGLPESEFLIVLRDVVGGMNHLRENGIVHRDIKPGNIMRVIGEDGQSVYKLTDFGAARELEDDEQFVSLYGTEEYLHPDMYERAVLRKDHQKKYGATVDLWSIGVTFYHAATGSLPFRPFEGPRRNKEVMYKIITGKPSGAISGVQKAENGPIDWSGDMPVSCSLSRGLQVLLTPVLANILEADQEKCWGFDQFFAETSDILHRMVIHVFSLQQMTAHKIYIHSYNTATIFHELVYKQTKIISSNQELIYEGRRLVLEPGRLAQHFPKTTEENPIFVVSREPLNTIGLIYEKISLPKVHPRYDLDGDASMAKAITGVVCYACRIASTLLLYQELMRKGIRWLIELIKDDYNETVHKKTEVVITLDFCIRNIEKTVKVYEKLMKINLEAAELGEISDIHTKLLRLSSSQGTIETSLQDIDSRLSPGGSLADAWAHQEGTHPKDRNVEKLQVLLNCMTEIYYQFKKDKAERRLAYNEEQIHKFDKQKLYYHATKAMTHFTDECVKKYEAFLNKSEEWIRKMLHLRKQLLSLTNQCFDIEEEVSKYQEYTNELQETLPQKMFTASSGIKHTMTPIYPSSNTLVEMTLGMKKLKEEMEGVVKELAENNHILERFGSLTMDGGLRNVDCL

binding (Flag-IKBKE): no binding
binding (Flag-MAVS): binds
binding (UFL1): no binding
binding (Flag-USP10): binds
binding (Flag-TBK1): no binding
B1: ORMDL3-GFP (protein, UniProt Q8N138 1-153)
chain: MNVGTAHSEVNPNTRVMNSRGIWLSYVLAIGLLHIVLLSIPFVSVPVVWTLTNLIHNMGMYIFLHTVKGTPFETPDQGKARLLTHWEQMDYGVQFTASRKFLTITPIVLYFLTSFYTKYDQIHFVLNTVSLMSVLIPKLPQLHGVRIFGINKY
